{"sequences": {"note": "Protein sequences, listed by entry. Tags and fused reporters are not part of them. Lines headed by an entry give the natural chain unless they say otherwise; changes in a name come on top.", "UniProt P18206": "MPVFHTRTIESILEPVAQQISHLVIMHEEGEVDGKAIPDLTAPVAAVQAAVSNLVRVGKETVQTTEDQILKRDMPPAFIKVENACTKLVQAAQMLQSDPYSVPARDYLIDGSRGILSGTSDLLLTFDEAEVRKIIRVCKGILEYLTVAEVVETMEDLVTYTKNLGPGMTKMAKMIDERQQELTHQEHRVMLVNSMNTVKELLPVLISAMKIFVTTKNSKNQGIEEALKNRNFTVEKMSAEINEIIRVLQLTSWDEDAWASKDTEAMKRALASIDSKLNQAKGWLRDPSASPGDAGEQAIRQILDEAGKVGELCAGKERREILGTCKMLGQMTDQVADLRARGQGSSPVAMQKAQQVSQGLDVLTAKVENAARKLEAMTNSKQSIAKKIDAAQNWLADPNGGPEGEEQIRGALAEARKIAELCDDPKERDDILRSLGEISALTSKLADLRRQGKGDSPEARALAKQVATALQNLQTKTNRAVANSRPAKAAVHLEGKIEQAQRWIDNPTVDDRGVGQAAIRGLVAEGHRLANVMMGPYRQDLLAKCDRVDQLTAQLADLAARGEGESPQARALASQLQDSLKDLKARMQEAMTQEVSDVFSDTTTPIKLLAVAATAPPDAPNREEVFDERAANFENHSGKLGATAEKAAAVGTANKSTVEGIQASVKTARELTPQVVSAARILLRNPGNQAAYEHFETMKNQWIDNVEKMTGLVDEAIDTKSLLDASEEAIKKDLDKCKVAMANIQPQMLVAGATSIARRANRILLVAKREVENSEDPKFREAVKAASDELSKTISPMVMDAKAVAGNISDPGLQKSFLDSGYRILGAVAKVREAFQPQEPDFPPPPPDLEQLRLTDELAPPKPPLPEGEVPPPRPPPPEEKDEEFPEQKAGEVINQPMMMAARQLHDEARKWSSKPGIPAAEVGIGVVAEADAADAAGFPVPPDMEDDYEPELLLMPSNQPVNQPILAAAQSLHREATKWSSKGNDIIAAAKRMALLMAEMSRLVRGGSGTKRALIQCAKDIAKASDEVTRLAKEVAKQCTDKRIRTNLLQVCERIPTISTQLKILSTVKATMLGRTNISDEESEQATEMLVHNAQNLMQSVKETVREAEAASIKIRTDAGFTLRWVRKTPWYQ", "UniProt O60603": "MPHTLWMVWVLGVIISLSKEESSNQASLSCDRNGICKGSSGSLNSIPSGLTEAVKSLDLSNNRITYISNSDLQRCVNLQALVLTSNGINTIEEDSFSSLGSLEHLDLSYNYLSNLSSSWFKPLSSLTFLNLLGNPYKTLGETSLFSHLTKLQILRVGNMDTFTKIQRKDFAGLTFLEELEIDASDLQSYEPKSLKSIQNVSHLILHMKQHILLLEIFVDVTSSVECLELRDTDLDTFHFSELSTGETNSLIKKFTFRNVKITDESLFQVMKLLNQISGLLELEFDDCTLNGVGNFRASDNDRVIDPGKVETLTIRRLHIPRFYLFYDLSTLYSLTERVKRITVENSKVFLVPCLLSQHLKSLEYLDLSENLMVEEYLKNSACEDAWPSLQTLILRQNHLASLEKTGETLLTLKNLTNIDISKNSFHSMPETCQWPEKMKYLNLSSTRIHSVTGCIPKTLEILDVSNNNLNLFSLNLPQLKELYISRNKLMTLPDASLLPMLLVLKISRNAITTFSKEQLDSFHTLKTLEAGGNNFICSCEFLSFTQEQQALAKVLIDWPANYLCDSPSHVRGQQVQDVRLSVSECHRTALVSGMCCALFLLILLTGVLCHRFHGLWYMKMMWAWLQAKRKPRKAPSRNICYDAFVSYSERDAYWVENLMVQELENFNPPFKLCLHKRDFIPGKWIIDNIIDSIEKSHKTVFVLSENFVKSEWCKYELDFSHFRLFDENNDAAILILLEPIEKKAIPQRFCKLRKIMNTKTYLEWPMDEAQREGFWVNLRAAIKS", "UniProt P27986": "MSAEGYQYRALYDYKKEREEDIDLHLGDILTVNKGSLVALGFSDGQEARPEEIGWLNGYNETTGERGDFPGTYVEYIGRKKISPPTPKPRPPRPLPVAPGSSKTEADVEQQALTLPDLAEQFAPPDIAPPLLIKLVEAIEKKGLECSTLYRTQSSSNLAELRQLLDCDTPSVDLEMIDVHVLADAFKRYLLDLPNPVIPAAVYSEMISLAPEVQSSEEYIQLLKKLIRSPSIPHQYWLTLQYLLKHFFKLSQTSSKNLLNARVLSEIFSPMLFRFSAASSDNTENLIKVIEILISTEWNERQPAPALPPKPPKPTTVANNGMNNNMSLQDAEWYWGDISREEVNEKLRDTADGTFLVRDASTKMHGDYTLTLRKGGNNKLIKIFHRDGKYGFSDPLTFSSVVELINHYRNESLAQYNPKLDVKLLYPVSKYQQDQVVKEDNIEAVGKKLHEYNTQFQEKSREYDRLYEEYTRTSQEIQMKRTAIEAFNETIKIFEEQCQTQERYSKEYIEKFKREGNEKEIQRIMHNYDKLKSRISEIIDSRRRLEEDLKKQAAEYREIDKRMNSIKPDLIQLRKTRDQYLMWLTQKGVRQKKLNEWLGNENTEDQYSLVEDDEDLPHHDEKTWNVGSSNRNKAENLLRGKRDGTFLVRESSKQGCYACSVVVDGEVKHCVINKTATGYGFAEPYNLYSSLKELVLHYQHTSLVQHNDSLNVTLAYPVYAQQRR"}, "source": "paper PMC10112799", "key": {"[1]": {"biological_target": "Vinculin (VCL), endogenous (human (endogenous in THP1 and in primary human macrophages)) (UniProt P18206)", "test": "co-IP; differentiated THP1 macrophages at steady state (not infected); VCL immunoprecipitated, eluates immunoblotted for PI3K p85α"}, "[2]": {"biological_target": "Toll-Like Receptor 2 (TLR2), native (human (endogenous in THP1 and in primary human macrophages)) (UniProt O60603)", "test": "co-IP; differentiated THP1 cells stimulated with P. gingivalis MOI 10 for the indicated times, no DSP cross-linker; TLR2 immunoprecipitated, eluates immunoblotted for VCL and TLR2"}, "[3]": {"biological_target": "Toll-Like Receptor 2 (TLR2), native (human (endogenous in THP1 and in primary human macrophages)) (UniProt O60603)", "test": "co-IP; THP1 macrophages, control or infected with P. gingivalis MOI 10 for 30 min, cross-linked with DSP; TLR2 immunoprecipitated, eluates (glycine pH 2.5) immunoblotted for VCL"}, "[4]": {"biological_target": "Toll-Like Receptor 2 (TLR2), native (human (endogenous in THP1 and in primary human macrophages)) (UniProt O60603)", "test": "co-IP; primary human PBMC-derived macrophages, control or infected with P. gingivalis MOI 10 for 30 min, cross-linked with DSP; TLR2 immunoprecipitated, boiled beads immunoblotted for VCL"}, "[5]": {"biological_target": "TLR2-Cub-TF bait (wild type) (UniProt O60603)", "test": "two-hybrid; Mammalian Membrane Two-Hybrid (MaMTH, split ubiquitin); TLR2-Cub-TF bait and Nub preys co-transfected in HEK293T 5xGAL4UAS-luciferase reporter cells; untreated, PAM, or P. gingivalis MOI 10 for 8 h; luciferase read-out"}}, "note": "These are yes or no findings as the source states them, for the method shown. For some assays here: Binding can be weak; no strength is given. For some assays here: In cells and extracts the contact can be indirect.", "data": [{"substance": "PI3K p85α, endogenous (from UniProt P27986 1-724)", "values": [{"measurement": "binding", "setting": "[1]", "value": "binds"}]}, {"substance": "Vinculin (VCL), endogenous (from UniProt P18206-2)", "values": [{"measurement": "binding", "setting": "[2]", "value": "no binding (only without the DSP cross-linker)"}, {"measurement": "binding", "setting": "[3]", "value": "binds"}, {"measurement": "binding", "setting": "[4]", "value": "binds"}]}, {"substance": "VCL-Nub prey (from UniProt P18206-2)", "values": [{"measurement": "binding", "setting": "[5]", "value": "binds"}]}]}
